The assay addresses cynomolgus macaque VISTA polypeptide (ELISA coat) (cynomolgus macaque). The assay can be described thus: ELISA, target protein coated at 1 µg/ml. A general note: An ELISA detects its analyte on a solid surface through an enzyme-linked reagent.

Data on one molecule can be found in US20190300610A1.

These are yes or no findings as the source states them, for the method shown. Some entries that bind do so weakly or less than the wild type.

B1: anti-VISTA clone 13D5-1 IgG1 (antibody, V domains shown)
VH: QVQLQQSGAELVRPGTSVKISCKASGYTFTNYWLGWVKQRPGHGLEWIGDIYPGGGYTNYNEKFKGKATLTADTSSSTAYMQLSSLTSEDSAVYFCVRSGYYYGSSWYFDVWGAGTTVTVSS
VL: DVLMTQTPLSLPVSLGDQASISCRSSQSIVHSSGNTYLEWYLQKPDQSPKLLIYKVSNRFSGVPDRFSGSGSGTDFTLKISRVEAEDLGVYYCFQGSHVPPTFGGGTKLEIKR
Regarding B1, the binding result is “binds”.
